{"sequences": {"note": "Sequences of proteins named here, by UniProt entry; tags and fusion partners are left off.", "UniProt P60323": "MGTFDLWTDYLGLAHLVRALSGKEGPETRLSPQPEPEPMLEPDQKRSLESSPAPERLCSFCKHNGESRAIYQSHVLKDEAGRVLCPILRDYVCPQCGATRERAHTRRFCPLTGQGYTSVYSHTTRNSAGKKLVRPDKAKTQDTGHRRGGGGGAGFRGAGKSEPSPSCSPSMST", "UniProt Q14671": "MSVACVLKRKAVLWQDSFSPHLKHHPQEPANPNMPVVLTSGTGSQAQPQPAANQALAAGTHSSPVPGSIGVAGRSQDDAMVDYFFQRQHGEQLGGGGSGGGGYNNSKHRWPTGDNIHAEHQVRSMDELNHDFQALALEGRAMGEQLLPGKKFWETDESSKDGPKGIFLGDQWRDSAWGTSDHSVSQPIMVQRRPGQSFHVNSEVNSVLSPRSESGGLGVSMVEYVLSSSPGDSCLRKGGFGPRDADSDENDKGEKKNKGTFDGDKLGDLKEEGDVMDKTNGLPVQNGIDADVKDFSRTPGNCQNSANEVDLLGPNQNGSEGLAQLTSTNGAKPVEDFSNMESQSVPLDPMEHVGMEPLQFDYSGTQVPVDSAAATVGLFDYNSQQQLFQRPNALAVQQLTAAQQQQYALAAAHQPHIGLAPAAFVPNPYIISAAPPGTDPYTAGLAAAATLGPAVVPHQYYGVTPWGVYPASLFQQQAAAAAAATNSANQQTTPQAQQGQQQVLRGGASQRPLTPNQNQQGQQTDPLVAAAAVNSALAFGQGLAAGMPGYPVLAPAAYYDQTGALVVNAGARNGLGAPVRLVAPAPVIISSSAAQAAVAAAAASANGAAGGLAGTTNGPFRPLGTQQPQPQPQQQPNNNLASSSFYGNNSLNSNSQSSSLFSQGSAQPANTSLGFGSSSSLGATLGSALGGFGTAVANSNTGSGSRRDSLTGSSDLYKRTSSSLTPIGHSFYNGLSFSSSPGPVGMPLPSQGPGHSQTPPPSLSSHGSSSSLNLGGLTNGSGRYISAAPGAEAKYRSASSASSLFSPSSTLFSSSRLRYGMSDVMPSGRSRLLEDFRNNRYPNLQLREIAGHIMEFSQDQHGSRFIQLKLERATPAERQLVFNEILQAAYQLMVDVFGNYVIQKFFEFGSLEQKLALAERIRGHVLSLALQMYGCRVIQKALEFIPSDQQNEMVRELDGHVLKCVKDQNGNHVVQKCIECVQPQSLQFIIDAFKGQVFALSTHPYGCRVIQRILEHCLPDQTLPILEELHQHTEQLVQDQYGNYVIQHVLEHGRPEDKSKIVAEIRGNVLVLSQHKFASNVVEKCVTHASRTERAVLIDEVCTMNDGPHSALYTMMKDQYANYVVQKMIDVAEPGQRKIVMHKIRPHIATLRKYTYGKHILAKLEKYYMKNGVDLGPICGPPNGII"}, "source": "paper PMC9223905", "key": {"NANOS3-GST (human) [1]": {"target": "NANOS3-GST (human) (UniProt P60323)", "test": "pull-down; NANOS3-GST and PUM1-FLAG overexpressed in TCam-2 cells; 0.3% formaldehyde cross-linking 10 min; lysis in 1% Triton X-100 buffer; 1x RNase inhibitors added (RNase - sample); Pierce GST beads, 2 h at 4 °C; Western blot"}, "NANOS3-GST (human) [2]": {"target": "NANOS3-GST (human) (UniProt P60323)", "test": "pull-down; NANOS3-GST and PUM1-FLAG overexpressed in TCam-2 cells; 0.3% formaldehyde cross-linking 10 min; lysis in 1% Triton X-100 buffer; RNase A added to the lysate (RNase + sample); Pierce GST beads, 2 h at 4 °C; Western blot"}}, "note": "These are yes or no findings as the source states them, for the method shown. Binding seen in cells or lysates may run through a third protein. Some results given as binding are weak or reduced against the parent protein; the word gives no strength.", "data": [{"substance": "PUM1-FLAG (from UniProt Q14671 1-1186)", "values": [{"measurement": "binding", "setting": "NANOS3-GST (human) [1]", "result": "binds"}, {"measurement": "binding", "setting": "NANOS3-GST (human) [2]", "result": "binds weakly"}]}]}
